# Hit rate of the full screen: of about 330,000 compounds, about 1,000 (0.3%) were called active. Inconclusive results, whose numbers are uncertain, are shown with a selection of clear calls. Calls come from the whole dose curve; as a rule, active = well fitted inhibition curve with a large enough effect; inconclusive = small, poorly fitted or top-dose-only effect; inactive = no such curve, though single readings can be large or run the other way; tested in mouse RAW 264.7 cells. Where the call is inconclusive, the potency comes from a doubtful curve fit.
# Assay: qHTS for Inhibitors of Cell Surface uPA Generation; note: nearly all actives have a fitted effect of over 55% in size
# Details: cell surface uPA generation assay; series mostly up to 38.3 µM
# Procedure, shortened: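 RAW 264.7, 4000 cells/well, o/n 37 C; cpd 1:5 dilution, up to 38.3 uM final; 24 h 37 C/5% CO2 with reagent; ATP-Lite lum. High ATP = LF entry blocked.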
# Potency is the fitted concentration of half-maximal effect.
row,Structure (SMILES),Potency
1,O=[N+]([O-])c1ccc(Cl)c([N+](=O)[O-])c1,active: 1.26 µM
2,CCCNC(=O)N1[C@H]2CC[C@@H]1C(C(=O)OC)=C(c1cccc(C#N)c1)C2,inactive
3,COC(=O)C1=C(c2ccc(-c3ccccc3)c(F)c2)C[C@@H]2CC[C@H]1N2C(=O)NC(C)C,"inconclusive: 10 µM [inhibitor, single point]"
4,COC(=O)C1=C(c2ccc(OCc3ccccc3)cc2)C[C@@H]2CC[C@H]1N2C(=O)NCCCc1ccccc1,"inconclusive: 12.6 µM [inhibitor, single point]"
5,CN(CCc1ccccc1)Cc1c[nH]c2ccccc12,active: 2.24 µM
6,Cc1nn(-c2nccs2)c2c1C(=O)CC(C)(C)C2Br (stereo unspecified),"inconclusive: 12.6 µM [inhibitor, single point]"
7,COc1ccc2c(c1)C(=O)N1[C@H]3c4cc(Cl)ccc4OC[C@@H]3[C@H](c3ccccc3)[C@]1(C)C(=O)N2,"inconclusive: 6.31 µM [inhibitor, partial curve]"
8,COC(=O)C1=C(c2cccc(OCc3ccccc3)c2)C[C@@H]2CC[C@H]1N2C(=O)NCc1ccc(Br)cc1,"inconclusive: 11.2 µM [inhibitor, single point]"
9,Brc1ccc(-[n+]2c(-c3ccccc3)cc(-c3ccccc3)cc2-c2ccccc2)cc1,"inconclusive: 25.1 µM [inhibitor, single point]"
10,COc1cc(CN2CCN(c3cc(C)ccc3C)CC2)ccc1O,"inconclusive: 12.6 µM [inhibitor, partial curve, poor fit]"
11,[O-]c1ccccc1-[n+]1c(-c2ccccc2)cc(-c2ccccc2)cc1-c1ccccc1,"inconclusive: 28.2 µM [inhibitor, single point]"
12,CC1=CC2/C=C(\C)CCC(O)C(O)/C=C/C(=O)C23C(=O)NC(CC(C)C)C3C1C (stereo unspecified),active: 1 µM
13,C[C@H]1O[C@@H](O[C@H]2[C@@H](O)C[C@H](O[C@H]3[C@@H](O)C[C@H](O[C@H]4CC[C@@]5(C)[C@H](CC[C@@H]6[C@@H]5CC[C@]5(C)[C@@H](C7=CC(=O)OC7)CC[C@]65O)C4)O[C@@H]3C)O[C@@H]2C)C[C@H](O)[C@@H]1O,inactive
14,CC[C@@H](CO)C1CC2NC3CC4(c5ccccc5N(C)[C@@H]24)C(O)C31 (stereo partly specified),inactive
15,COc1ccc(-c2cc(C(=O)N3CCC4(CC3)OCCO4)c3ccccc3n2)cc1,"inconclusive: 14.1 µM [inhibitor, partial curve, poor fit]"
16,Oc1ccc(C2=CCNCC2)cc1O,"inconclusive: 3.98 µM [inhibitor, partial curve, poor fit]"
17,CC(C)(C)C1CCc2sc(C(=O)NNC(=O)CCl)cc2C1 (stereo unspecified),"inconclusive: 10 µM [inhibitor, partial curve, poor fit]"
18,C[C@]12CC[C@H]3[C@@H](CCC4=CC(=O)CC[C@@]43C)[C@@H]1CC[C@@H]2C(=O)CO,active: 3.98 µM
19,CCOc1cc2c(cc1OCC)-n1cccc1C(c1cccc([N+](=O)[O-])c1)NC2 (stereo unspecified),"inconclusive: 28.2 µM [inhibitor, single point]"

row,Structure (SMILES),Potency
1,COC(=O)C1=C(c2ccccc2OCc2ccccc2)C[C@@H]2CC[C@H]1N2C(=O)NCc1ccc(Cl)cc1,"inconclusive: 6.31 µM [inhibitor, partial curve]"
2,O=C(COc1ccccc1)Nc1nc2cc3c(cc2s1)OCO3,"inconclusive: 31.6 µM [inhibitor, partial curve, poor fit]"
3,COCCN=c1scc(-c2cccs2)n1/N=C/c1ccc(O)c(O)c1O,"inconclusive: 10 µM [inhibitor, partial curve, poor fit]"
4,O=C(c1ccc2c(Cl)c3c(nc2c1)CCCC3)N1CCC(N2CCCCC2)CC1,active: 10 µM
5,CC(C)(C)c1cc(C=C(C#N)C#N)cc(C(C)(C)C)c1O,"inconclusive: 0.891 µM [inhibitor, partial curve, poor fit]"
6,O=C(N/N=C/c1cn(-c2ccccc2)nc1-c1cccs1)c1ccc(Cl)cc1,"inconclusive: 10 µM [inhibitor, partial curve, poor fit]"
7,COc1ccc(-[n+]2c(-c3ccccc3)cc(-c3ccccc3)cc2-c2ccccc2)cc1,"inconclusive: 8.91 µM [inhibitor, partial curve, poor fit]"
8,C[C@@H]1C(=O)O[C@H]2[C@H](O)[C@]34[C@@H]5OC(=O)[C@]3(OC3OC(=O)[C@H](O)C34[C@H](C(C)(C)C)[C@@H]5O)[C@@]12O (stereo partly specified),"inconclusive: 3.16 µM [inhibitor, partial curve, poor fit]"
9,CCC1C/C(=C\c2cc(OC)c(OC)cc2OC)C(=O)/C(=C/c2cc(OC)c(OC)cc2OC)C1 (stereo unspecified),"inconclusive: 12.6 µM [inhibitor, single point]"
10,CCCCCC1(C(C)C)C(=O)NC(=S)NC1=O,inactive
11,S=P(NC1CCCCC1)(N1CC1)N1CC1,"inconclusive: 3.16 µM [inhibitor, single point]"
12,COC(=O)C1=C(c2ccc(-c3ccccc3)c(F)c2)C[C@@H]2CC[C@H]1N2C(=O)NCCOc1ccc(OC)cc1,"inconclusive: 10 µM [inhibitor, single point]"
13,COc1ccc(-c2cn3c(C)c(C(=O)N4CCCc5ccccc54)sc3n2)cc1,"inconclusive: 12.6 µM [inhibitor, single point]"
14,O=[N+]([O-])c1ccc(C(=Nc2ccccc2)N2CC2)cc1,"inconclusive: 2.82 µM [inhibitor, partial curve]"
15,COC(=O)C1=C(c2ccc(Cl)c(C(F)(F)F)c2)C[C@@H]2CC[C@H]1N2C(=O)NCCOc1ccccc1Cl,"inconclusive: 12.6 µM [inhibitor, single point]"
16,CC(=O)O[C@@]12CO[C@@H]1C[C@H](O)[C@@]1(C)C(=O)[C@H](O)C3=C(C)[C@@H](OC(=O)[C@H](O)[C@@H](NC(=O)c4ccccc4)c4ccccc4)C[C@@](O)([C@@H](OC(=O)c4ccccc4)C12)C3(C)C (stereo partly specified),active: 0.447 µM
17,N/C(=N\[N+](=O)[O-])N/N=C/c1ccc(O)cc1,inactive
18,COC(=O)C1=C(c2ccccc2OCc2ccccc2)C[C@@H]2CC[C@H]1N2C(=O)NCc1ccc(C(F)(F)F)cc1,"inconclusive: 12.6 µM [inhibitor, single point]"
19,CC(=O)O[C@@H]1C[C@H]2C(C)(C)C(=O)C=C[C@]2(C)[C@H]2CC[C@@]3(C)[C@H](c4ccoc4)OC(=O)[C@H]4O[C@]43[C@@]21C,"inconclusive: 31.6 µM [inhibitor, partial curve, poor fit]"

# Entries shown so far containing sulfur (8):
row,Structure (SMILES),Potency
6,Cc1nn(-c2nccs2)c2c1C(=O)CC(C)(C)C2Br (stereo unspecified),"inconclusive: 12.6 µM [inhibitor, single point]"
17,CC(C)(C)C1CCc2sc(C(=O)NNC(=O)CCl)cc2C1 (stereo unspecified),"inconclusive: 10 µM [inhibitor, partial curve, poor fit]"
2,O=C(COc1ccccc1)Nc1nc2cc3c(cc2s1)OCO3,"inconclusive: 31.6 µM [inhibitor, partial curve, poor fit]"
3,COCCN=c1scc(-c2cccs2)n1/N=C/c1ccc(O)c(O)c1O,"inconclusive: 10 µM [inhibitor, partial curve, poor fit]"
6,O=C(N/N=C/c1cn(-c2ccccc2)nc1-c1cccs1)c1ccc(Cl)cc1,"inconclusive: 10 µM [inhibitor, partial curve, poor fit]"
10,CCCCCC1(C(C)C)C(=O)NC(=S)NC1=O,inactive
11,S=P(NC1CCCCC1)(N1CC1)N1CC1,"inconclusive: 3.16 µM [inhibitor, single point]"
13,COc1ccc(-c2cn3c(C)c(C(=O)N4CCCc5ccccc54)sc3n2)cc1,"inconclusive: 12.6 µM [inhibitor, single point]"

# An excerpt from above in order of SMILES length, smallest number first:
row,Structure (SMILES),Potency
6,O=C(N/N=C/c1cn(-c2ccccc2)nc1-c1cccs1)c1ccc(Cl)cc1,"inconclusive: 10 µM [inhibitor, partial curve, poor fit]"
18,COC(=O)C1=C(c2ccccc2OCc2ccccc2)C[C@@H]2CC[C@H]1N2C(=O)NCc1ccc(C(F)(F)F)cc1,"inconclusive: 12.6 µM [inhibitor, single point]"
8,C[C@@H]1C(=O)O[C@H]2[C@H](O)[C@]34[C@@H]5OC(=O)[C@]3(OC3OC(=O)[C@H](O)C34[C@H](C(C)(C)C)[C@@H]5O)[C@@]12O (stereo partly specified),"inconclusive: 3.16 µM [inhibitor, partial curve, poor fit]"

# (cont.)

row,Structure (SMILES),Potency
1,CCO[C@H]1OC(C(=O)Nc2ccccc2)=C[C@@H](c2csc3ccccc23)[C@@H]1CCCO,"inconclusive: 31.6 µM [inhibitor, partial curve, poor fit]"
2,Cn1nc([N+](=O)[O-])nc1Sc1cccc2cccnc12,"inconclusive: 12.6 µM [inhibitor, single point]"
3,CC1=CC(=Cc2sc3ccccc3[n+]2C)C=C(C)O1,active: 5.01 µM
4,COc1ccccc1N1CCN(/N=C(\C)c2ccc(O)cc2)CC1,"inconclusive: 8.91 µM [inhibitor, partial curve, poor fit]"
5,c1ccc(CN2CCC(Nc3nc(-c4cccs4)nc4ccccc34)CC2)cc1,"inconclusive: 20 µM [inhibitor, single point]"
6,CC(C)c1cccc(O)c(=O)c1,"inconclusive: 8.91 µM [inhibitor, partial curve, poor fit]"
7,CC1(C)OC(c2ccccc2)=C/C(=C/C=C2C(=O)NC(=O)NC2=O)O1,"inconclusive: 10 µM [inhibitor, partial curve, poor fit]"
8,COC(=O)C1=C(c2ccccc2OCc2ccccc2)C[C@@H]2CC[C@H]1N2C(=O)NCc1ccc(C(C)(C)C)cc1,"inconclusive: 12.6 µM [inhibitor, single point]"
9,Cc1cc(Br)ccc1NC(=O)CN(C)C(=O)C1CCN(c2ncnc3sc(C)c(C)c23)CC1,"inconclusive: 28.2 µM [inhibitor, single point]"
10,COc1ccc(-c2sc3ccccc3c2-c2ccc(OCCN(C)C)cc2)cc1,"inconclusive: 28.2 µM [inhibitor, single point]"
11,CC(C)C[C@H]1CN=C(Nc2ccccc2)N1CCC(C)c1ccccc1 (stereo partly specified),"inconclusive: 31.6 µM [inhibitor, single point]"
12,O=Cc1cn(Cc2c(F)cccc2Cl)c2ccccc12,"inconclusive: 0.562 µM [inhibitor, partial curve, poor fit]"
13,CN(C)CC(C(=O)Cc1ccccc1)c1ccccc1 (stereo unspecified),"inconclusive: 0.891 µM [inhibitor, partial curve, poor fit]"
14,COc1ccc(CNC(=O)C[C@H]2C[C@H](C(=O)N3CCCCC3)[C@@]3(CCc4ccccc4)c4[nH]c5ccc(Cl)cc5c4CCN3C2=O)cc1OC,"inconclusive: 10 µM [inhibitor, partial curve, poor fit]"
15,COC(=O)C1=C(c2ccccc2OCc2ccccc2)C[C@@H]2CC[C@H]1N2C(=O)NCCOc1ccccc1Cl,"inconclusive: 12.6 µM [inhibitor, single point]"
16,Cc1ccc(/C=C2\C(=O)NC(=O)N(CCc3ccc(F)cc3)C2=O)s1,inactive
17,O=C1CC(c2cccc(Br)c2)c2cc3c(cc2N1)CCC3 (stereo unspecified),"inconclusive: 3.16 µM [inhibitor, partial curve]"
18,COC(=O)N1C(=O)[C@@](c2ccc(OC)cc2)(C(C)C)N1C(=O)OC,active: 6.31 µM

# Source: PubChem BioAssay AID540303 (National Center for Advancing Translational Sciences (NCATS), 2011)
